From PMC9110378
These are yes or no findings as the source states them, for the method shown. In cells and extracts the contact can be indirect. Some results given as binding are weak or reduced against the parent protein; the word gives no strength.

By UniProt entry, the sequences of proteins in these tests, tags left out.
UniProt Q9NP66: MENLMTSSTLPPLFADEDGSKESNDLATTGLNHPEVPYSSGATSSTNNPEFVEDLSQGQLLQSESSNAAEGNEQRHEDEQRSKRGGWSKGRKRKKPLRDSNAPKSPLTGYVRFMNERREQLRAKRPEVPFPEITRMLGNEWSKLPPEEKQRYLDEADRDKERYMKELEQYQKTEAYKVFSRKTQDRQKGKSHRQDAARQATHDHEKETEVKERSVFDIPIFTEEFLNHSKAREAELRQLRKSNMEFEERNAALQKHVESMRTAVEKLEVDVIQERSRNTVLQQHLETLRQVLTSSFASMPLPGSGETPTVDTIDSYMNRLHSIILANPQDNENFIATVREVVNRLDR

Biological target: T1, Scm-like with four malignant brain tumor domains 1 (SFMBT1) (human (in human colorectal cell lines)) (UniProt Q9UHJ3)
T1 sequence: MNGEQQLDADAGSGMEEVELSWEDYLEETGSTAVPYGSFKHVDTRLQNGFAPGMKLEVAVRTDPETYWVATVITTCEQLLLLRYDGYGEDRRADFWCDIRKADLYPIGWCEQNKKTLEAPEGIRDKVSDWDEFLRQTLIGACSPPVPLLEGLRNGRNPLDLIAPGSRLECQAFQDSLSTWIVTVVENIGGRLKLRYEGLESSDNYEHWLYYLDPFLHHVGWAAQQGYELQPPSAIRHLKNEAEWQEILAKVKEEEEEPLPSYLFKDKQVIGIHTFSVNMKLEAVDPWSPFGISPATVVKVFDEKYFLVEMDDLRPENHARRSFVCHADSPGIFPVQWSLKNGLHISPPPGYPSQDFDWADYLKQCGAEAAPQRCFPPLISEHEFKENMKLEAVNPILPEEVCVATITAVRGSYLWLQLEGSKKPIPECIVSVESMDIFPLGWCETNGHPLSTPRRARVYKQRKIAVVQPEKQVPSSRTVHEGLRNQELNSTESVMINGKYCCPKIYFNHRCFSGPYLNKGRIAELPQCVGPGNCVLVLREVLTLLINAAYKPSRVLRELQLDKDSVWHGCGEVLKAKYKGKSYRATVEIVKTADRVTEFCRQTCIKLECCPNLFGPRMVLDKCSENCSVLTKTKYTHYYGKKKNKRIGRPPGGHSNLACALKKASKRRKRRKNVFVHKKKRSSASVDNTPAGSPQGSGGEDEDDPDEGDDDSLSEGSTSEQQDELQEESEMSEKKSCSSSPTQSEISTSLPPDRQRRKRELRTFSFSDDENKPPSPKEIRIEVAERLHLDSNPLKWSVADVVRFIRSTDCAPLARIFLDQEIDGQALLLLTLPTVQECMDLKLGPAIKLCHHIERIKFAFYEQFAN
Test: co-IP; cells lysed in RIPA buffer, incubated with protein A/G agarose and antibody for 4 h at 4 °C; eluted complexes analysed by western blotting; bait and cell line not stated

- binding: binds
Substance: high mobility group domain-containing protein 20 A (HMG20A) (from UniProt Q9NP66 1-347)
